Test results from patent US20260263615A1 (priority 2023, published 2026).

Test: Fmoc solid-phase peptide synthesis; 2-CTC resin; HATU/DIPEA
Conditions: whole synthesis, scale 3.00 mmol, TFA salt

Work on “1-(9H-fluoren-9-yl)-4,7,10,13,16,19,22,25,28,31-decamethyl-3,6,9,12,15,18,21,24,27,30-decaoxo-2-oxa-4,7,10,13,16,19,22,25,28,31-decaazatritriacontan-33-oic acid” yielded an isolated mass of 2856 mg.
